Paper PMC7862700
Only a part is listed here, and it is no random draw. For some assays here: At the low end of the ranking, values are background and their order means little.

target: T1, ELK1 (UniProt P19419); test: DAPPL (digital affinity profiling via proximity ligation, sequencing); conditions: 10 mM Tris-HCl pH 7.5, 50 mM NaCl, 1 mM DTT, 4% glycerol, room temperature, 30 min; GST-TFs on glutathione beads, 16-mer random dsDNA library, 0.1% …; high values mean tight binding; double strand, one strand shown; scale: fold enrichment (6-mer frequency, TF over GST control)
T1 sequence: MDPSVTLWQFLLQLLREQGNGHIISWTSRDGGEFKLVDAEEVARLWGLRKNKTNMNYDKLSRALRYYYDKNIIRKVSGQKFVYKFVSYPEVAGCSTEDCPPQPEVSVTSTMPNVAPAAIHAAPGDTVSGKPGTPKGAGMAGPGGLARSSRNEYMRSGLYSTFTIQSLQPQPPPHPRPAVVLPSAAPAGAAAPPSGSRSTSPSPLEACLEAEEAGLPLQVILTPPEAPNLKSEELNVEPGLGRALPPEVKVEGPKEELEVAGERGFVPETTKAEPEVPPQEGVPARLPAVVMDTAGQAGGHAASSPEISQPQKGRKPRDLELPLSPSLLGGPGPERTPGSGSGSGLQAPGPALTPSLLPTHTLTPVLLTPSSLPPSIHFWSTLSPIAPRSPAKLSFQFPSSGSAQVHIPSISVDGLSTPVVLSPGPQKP

Row | Sequence | binding signal
1 | AATTGC | 1.42
2 | TAGCAC | 1.12
3 | CGGCTC | 1.29
4 | CTACTC | 1.36
5 | TCTTGT | 1.64
6 | AGTATC | 1.13
7 | TCGTTC | 1.15
8 | GAAAGA | 0.979
9 | GATACT | 1.01
10 | CACTTC | 3.77
11 | TTAGGG | 1.14
12 | TGTCCA | 1.18
13 | TGCTCA | 1.28
14 | GTTACG | 0.993
15 | AACAAT | 1.29
16 | TGCGCT | 1.3
17 | CGTTAC | 1.09
18 | ATATGC | 1.15

Row | Sequence | binding signal
19 | TTCATC | 1.28
20 | AGAATT | 1.15
21 | TGGTAT | 1.45
22 | GTGGCT | 0.997
23 | TTCTCA | 1.31
24 | ATATGG | 1.31
25 | TTCGTT | 1.4
26 | AATAGA | 1.09
27 | TGCGAT | 1.12
28 | TACCCG | 1.35
29 | CCCTCG | 1.34
30 | CTAAGA | 1.22
31 | GAATAC | 1.1
32 | CGCGAC | 0.971
33 | CCTCTC | 1.39
34 | ATACCT | 1.18
35 | CGATAA | 1.02

target: T2, ELK3 (UniProt P41970); test: as above; conditions: 10 mM Tris-HCl pH 7.5, 50 mM NaCl, 1 mM DTT, 4% glycerol, room temperature, 30 min; GST-TFs on glutathione beads, 16-mer random dsDNA library, 0.1% …; high values mean tight binding; double strand, one strand shown; scale: fold enrichment (6-mer frequency, TF over GST control)
T2 sequence: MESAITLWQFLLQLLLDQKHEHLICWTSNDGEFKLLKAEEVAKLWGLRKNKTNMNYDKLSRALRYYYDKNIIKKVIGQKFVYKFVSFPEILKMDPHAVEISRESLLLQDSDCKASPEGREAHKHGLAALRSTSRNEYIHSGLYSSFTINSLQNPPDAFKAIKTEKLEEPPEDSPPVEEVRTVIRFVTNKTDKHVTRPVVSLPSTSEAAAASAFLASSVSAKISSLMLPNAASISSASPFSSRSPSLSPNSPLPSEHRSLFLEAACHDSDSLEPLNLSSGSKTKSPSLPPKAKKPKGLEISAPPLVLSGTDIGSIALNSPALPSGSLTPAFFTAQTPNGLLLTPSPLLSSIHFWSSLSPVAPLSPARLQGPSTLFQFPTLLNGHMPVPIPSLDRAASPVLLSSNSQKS

Row | Sequence | binding signal
36 | AATTGC | 1.46
37 | TAGCAC | 1.19
38 | CGGCTC | 1.31
39 | CTACTC | 1.46
40 | TCTTGT | 1.58
41 | AGTATC | 1.17
42 | TCGTTC | 1.23
43 | GAAAGA | 0.918
44 | GATACT | 1.09
45 | CACTTC | 3.97
46 | TTAGGG | 1.07
47 | TGTCCA | 1.14
48 | TGCTCA | 1.19
49 | GTTACG | 1.01
50 | AACAAT | 1.32
51 | TGCGCT | 1.25
52 | CGTTAC | 1.21
53 | ATATGC | 1.05

Row | Sequence | binding signal
54 | TTCATC | 1.32
55 | AGAATT | 1.28
56 | TGGTAT | 1.24
57 | GTGGCT | 0.988
58 | TTCTCA | 1.27
59 | ATATGG | 1.25
60 | TTCGTT | 1.24
61 | AATAGA | 0.972
62 | TGCGAT | 1.31
63 | TACCCG | 1.37
64 | CCCTCG | 1.15
65 | CTAAGA | 1.18
66 | GAATAC | 0.997
67 | CGCGAC | 0.984
68 | CCTCTC | 1.44
69 | ATACCT | 1.08
70 | CGATAA | 1.2

target: T3, ETS2 (UniProt P15036); test: as above; conditions: 10 mM Tris-HCl pH 7.5, 50 mM NaCl, 1 mM DTT, 4% glycerol, room temperature, 30 min; GST-TFs on glutathione beads, 16-mer random dsDNA library, 0.1% …; high values mean tight binding; double strand, one strand shown; scale: fold enrichment (6-mer frequency, TF over GST control)
T3 sequence: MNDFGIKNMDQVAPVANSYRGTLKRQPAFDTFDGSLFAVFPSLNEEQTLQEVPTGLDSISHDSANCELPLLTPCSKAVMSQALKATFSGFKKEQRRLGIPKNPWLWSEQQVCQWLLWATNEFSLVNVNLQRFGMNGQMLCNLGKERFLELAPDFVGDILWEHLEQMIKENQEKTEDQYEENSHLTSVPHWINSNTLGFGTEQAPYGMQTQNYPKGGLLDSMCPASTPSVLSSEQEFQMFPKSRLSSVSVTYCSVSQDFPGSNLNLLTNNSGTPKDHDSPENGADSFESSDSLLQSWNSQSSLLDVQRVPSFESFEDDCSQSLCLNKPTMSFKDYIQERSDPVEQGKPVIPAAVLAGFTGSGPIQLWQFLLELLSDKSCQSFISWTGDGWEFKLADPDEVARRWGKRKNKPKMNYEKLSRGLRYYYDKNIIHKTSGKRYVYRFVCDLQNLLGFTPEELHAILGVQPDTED

Row | Sequence | binding signal
71 | GGTTTA | 1.02
72 | AACTTC | 2.63
73 | TCCCTC | 1.49
74 | TTCTCG | 1.45
